According to publication PMC9975134:
Results are given in words; binding and its absence hold for the method and conditions named. Binding seen in cells or lysates may run through a third protein. Some results given as binding are weak or reduced against the parent protein; the word gives no strength.

The chains behind the UniProt entries cited, without tags or fusion partners. Where a name states a change or a piece, a line headed by the entry shows the natural chain unless it says otherwise. Residues count along the entry.
UniProt Q04206: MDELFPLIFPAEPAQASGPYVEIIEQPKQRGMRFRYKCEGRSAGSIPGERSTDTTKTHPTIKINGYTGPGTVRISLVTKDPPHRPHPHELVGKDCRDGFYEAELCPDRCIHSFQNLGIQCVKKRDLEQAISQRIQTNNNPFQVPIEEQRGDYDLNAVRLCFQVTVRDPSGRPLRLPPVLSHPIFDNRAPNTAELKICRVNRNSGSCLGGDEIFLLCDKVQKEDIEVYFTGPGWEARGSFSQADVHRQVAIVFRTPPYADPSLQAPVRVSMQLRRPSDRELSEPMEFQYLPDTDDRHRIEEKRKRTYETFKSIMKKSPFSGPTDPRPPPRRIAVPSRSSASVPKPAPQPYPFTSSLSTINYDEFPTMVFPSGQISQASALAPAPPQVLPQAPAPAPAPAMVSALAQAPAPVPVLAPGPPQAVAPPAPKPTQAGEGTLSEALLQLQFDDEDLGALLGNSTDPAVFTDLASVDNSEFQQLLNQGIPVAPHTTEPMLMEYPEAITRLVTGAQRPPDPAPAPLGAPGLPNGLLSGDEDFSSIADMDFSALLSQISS
UniProt Q9Y6Q9: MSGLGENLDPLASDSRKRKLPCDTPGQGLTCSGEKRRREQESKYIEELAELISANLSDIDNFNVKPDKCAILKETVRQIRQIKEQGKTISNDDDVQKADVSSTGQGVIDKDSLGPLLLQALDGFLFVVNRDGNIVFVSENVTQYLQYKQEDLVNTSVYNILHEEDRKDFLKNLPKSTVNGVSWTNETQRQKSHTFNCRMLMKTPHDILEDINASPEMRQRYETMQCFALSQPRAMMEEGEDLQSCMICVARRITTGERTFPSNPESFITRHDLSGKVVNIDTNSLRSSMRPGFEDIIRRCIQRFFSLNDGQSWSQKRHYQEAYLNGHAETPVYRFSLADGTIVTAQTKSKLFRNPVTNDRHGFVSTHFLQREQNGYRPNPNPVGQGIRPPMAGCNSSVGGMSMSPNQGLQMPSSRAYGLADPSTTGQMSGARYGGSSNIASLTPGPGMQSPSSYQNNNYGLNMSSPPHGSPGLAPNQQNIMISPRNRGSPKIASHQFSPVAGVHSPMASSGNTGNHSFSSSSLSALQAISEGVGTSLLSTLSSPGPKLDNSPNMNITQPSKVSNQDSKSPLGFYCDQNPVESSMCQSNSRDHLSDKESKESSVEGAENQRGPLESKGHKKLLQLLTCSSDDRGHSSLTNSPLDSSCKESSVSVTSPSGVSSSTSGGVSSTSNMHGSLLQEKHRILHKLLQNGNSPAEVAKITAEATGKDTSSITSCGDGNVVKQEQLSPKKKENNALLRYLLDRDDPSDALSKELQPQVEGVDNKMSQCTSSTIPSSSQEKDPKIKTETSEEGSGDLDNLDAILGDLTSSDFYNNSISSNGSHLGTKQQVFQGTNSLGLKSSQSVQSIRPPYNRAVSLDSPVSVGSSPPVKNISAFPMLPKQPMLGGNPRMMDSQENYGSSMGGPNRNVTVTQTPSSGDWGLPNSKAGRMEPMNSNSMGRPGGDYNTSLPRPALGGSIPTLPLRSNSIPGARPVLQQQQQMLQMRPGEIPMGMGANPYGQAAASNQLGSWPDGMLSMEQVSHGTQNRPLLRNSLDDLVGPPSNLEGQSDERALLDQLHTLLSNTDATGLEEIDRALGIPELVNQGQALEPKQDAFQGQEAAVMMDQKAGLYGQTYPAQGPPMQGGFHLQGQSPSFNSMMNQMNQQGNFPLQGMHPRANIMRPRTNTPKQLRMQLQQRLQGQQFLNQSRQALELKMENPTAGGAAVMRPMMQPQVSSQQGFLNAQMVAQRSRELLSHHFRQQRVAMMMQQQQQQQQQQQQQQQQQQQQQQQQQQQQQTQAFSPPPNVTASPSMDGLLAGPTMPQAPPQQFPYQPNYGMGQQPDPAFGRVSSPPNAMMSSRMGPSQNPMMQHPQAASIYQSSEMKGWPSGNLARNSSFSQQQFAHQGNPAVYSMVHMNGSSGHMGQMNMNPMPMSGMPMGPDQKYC
UniProt P19838, residues 1-433: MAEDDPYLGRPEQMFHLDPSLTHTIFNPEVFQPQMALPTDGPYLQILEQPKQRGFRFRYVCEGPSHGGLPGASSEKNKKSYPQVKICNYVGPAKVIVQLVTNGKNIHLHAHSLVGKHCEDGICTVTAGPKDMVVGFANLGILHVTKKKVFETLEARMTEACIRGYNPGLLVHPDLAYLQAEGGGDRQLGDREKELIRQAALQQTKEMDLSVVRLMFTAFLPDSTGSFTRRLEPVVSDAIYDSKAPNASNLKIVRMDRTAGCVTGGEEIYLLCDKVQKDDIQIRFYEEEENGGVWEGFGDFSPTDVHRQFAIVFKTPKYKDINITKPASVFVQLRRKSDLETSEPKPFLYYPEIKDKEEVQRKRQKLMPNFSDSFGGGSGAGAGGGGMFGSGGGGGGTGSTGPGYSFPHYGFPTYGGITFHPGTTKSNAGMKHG
UniProt Q09472: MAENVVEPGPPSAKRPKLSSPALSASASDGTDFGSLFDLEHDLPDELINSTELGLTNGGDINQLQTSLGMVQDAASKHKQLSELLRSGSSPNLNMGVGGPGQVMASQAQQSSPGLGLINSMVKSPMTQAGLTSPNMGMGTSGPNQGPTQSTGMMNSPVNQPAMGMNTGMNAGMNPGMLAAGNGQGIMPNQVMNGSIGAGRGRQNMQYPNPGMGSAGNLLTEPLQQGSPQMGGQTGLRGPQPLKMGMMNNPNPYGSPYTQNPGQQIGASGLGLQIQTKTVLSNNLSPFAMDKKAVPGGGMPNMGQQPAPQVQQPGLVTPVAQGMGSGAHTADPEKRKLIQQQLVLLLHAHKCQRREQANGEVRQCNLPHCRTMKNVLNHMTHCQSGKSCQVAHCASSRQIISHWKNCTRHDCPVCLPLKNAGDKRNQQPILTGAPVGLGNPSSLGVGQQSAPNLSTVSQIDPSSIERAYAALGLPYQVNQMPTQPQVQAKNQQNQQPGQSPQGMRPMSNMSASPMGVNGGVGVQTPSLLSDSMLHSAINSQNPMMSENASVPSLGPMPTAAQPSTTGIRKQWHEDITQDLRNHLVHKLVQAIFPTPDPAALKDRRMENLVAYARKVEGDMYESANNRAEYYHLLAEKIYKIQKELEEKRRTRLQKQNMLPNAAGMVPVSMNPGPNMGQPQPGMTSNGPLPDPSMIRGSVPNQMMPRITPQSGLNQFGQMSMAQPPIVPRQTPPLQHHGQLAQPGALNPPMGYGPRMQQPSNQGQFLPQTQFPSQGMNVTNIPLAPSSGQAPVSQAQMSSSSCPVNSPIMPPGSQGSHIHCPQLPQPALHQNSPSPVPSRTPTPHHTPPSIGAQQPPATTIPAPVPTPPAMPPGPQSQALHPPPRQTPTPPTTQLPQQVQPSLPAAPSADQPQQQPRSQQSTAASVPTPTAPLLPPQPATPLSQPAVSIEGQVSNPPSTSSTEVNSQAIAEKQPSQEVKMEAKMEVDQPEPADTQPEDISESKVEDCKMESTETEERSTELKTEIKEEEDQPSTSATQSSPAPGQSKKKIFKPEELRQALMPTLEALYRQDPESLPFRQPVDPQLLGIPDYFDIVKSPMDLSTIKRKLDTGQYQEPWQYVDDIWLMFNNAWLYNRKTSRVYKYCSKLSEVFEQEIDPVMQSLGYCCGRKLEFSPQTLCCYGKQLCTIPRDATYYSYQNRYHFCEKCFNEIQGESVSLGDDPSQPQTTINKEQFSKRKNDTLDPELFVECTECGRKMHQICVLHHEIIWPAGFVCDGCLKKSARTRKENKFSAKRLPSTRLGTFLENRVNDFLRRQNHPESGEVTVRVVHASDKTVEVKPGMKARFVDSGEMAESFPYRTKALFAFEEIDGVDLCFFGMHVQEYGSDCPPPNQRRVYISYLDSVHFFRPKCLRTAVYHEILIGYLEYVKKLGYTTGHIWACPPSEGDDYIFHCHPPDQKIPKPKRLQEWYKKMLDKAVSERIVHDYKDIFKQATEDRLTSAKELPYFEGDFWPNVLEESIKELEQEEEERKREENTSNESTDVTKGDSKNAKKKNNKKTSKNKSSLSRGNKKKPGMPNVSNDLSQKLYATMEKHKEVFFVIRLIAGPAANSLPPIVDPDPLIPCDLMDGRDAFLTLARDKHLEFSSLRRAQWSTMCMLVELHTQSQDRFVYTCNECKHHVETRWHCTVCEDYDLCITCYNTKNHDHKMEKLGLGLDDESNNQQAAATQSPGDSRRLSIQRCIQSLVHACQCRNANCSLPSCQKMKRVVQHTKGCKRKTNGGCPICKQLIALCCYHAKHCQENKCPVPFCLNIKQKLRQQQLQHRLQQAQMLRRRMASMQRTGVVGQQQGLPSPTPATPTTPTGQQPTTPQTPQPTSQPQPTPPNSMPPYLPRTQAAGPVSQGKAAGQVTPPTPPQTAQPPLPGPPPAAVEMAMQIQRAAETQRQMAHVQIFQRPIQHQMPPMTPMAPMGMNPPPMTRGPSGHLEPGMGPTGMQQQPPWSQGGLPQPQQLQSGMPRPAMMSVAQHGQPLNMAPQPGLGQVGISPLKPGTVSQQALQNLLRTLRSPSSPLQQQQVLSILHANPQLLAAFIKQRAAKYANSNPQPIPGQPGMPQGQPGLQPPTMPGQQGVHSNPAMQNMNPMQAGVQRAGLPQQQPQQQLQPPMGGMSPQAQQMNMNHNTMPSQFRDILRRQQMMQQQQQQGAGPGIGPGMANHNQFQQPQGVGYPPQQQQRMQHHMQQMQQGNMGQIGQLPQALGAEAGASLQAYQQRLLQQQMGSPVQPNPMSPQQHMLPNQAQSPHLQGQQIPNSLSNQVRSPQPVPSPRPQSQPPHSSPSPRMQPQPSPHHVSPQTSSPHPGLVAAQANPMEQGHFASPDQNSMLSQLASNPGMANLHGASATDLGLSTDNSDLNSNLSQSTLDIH

Columns and labels:
Flag-p65 = Flag-p65 (UniProt Q04206); assay: co-IP; Flag-tagged and Myc-tagged plasmids cotransfected into T47D cells, 48 h; lysis in RIPA buffer with protease inhibitors; immunoprecipitation with anti-Flag agarose; blots with anti-Flag and anti-Myc
Flag-NCOA3 = Flag-NCOA3 (UniProt Q9Y6Q9); assay: as above
[1] = biological target: RelA/p65 (NF-κB subunit), endogenous (human (endogenous in T47D)) (UniProt Q04206); assay: co-IP; endogenous proteins; T47D cell extracts immunoprecipitated with anti-p65-coupled protein A agarose or IgG agarose, blots with anti-p65, anti-p50, anti-p300, anti-NCOA3; also HME1, T47D and BT549 cells treated with 0, 5 or 10 nM E2 for 4 h
[2] = biological target: NFKB1/p50 (NF-κB subunit), endogenous (human (endogenous in T47D)) (UniProt P19838); assay: co-IP; endogenous proteins; cell extracts (MCF-7 by the text, the same T47D extracts by the legend) immunoprecipitated with anti-p50-coupled agarose or IgG agarose, blots with anti-p50, anti-p65, anti-p300, anti-NCOA3

binding (Flag-NCOA3) | binding [2] | Substance | further results
 |  | Myc-NCOA3 (from UniProt Q9Y6Q9 1-1424) | binding (Flag-p65): no binding
no binding |  | Myc-p65 (from UniProt Q04206 1-551) | 
binds |  | Myc-p300 (from UniProt Q09472 1-2414) | 
 |  | NFKB1/p50 (NF-κB subunit), endogenous (from UniProt P19838 1-433) | binding [1]: binds
 | binds | RelA/p65 (NF-κB subunit), endogenous (from UniProt Q04206 1-551) | 
 | binds | histone acetyltransferase p300, endogenous (from UniProt Q09472 1-2414) | 
